These are yes or no findings as the source states them, for the method shown. In cells and extracts the contact can be indirect. A yes stands for co-enrichment or nearness to the bait. Other partners may have been found. For some of these results: Where a sequence is shown, tags or fusion partners need not be part of it.
T1: N-terminal 2xHA-tagged PfNEDD8 expressed in S. cerevisiae rub1Δ (P. falciparum) (UniProt Q8IEI4)
T1 sequence: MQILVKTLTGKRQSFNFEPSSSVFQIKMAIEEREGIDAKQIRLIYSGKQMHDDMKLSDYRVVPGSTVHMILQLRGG

The chains behind the UniProt entries cited, without tags or fusion partners. Where a name states a change or a piece, a line headed by the entry shows the natural chain unless it says otherwise.
UniProt Q03919: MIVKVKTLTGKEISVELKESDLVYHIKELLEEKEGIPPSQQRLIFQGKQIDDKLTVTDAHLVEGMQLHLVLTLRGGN
UniProt P52286: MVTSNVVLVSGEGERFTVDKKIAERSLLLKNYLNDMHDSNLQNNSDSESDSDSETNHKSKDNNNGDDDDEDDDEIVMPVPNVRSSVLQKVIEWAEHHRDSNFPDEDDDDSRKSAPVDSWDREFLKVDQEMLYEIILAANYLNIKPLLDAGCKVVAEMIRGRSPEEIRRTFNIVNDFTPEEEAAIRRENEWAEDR
UniProt P08536: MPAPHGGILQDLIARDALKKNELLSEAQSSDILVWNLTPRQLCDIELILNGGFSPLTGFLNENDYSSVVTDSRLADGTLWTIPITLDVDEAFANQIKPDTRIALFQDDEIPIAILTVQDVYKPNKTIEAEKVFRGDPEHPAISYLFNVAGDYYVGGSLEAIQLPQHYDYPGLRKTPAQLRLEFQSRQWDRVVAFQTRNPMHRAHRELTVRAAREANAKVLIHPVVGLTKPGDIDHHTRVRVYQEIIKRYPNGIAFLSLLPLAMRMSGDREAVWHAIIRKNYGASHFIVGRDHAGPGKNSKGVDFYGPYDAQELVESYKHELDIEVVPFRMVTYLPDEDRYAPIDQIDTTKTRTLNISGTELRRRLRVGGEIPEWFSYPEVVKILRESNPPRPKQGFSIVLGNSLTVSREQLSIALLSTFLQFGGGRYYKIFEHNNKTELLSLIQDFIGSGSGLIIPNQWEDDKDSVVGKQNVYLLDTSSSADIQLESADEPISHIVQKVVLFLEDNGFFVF

B1: S. cerevisiae NADP-specific glutamate dehydrogenase 1 (enzyme, UniProt P07262 1-454)
chain: MSEPEFQQAYEEVVSSLEDSTLFEQHPEYRKVLPIVSVPERIIQFRVTWENDKGEQEVAQGYRVQYNSAKGPYKGGLRFHPSVNLSILKFLGFEQIFKNSLTGLDMGGGKGGLCVDLKGRSNNEIRRICYAFMRELSRHIGQDTDVPAGDIGVGGREIGYLFGAYRSYKNSWEGVLTGKGLNWGGSLIRPEATGYGLVYYTQAMIDYATNGKESFEGKRVTISGSGNVAQYAALKVIELGGTVVSLSDSKGCIISETGITSEQVADISSAKVNFKSLEQIVNEYSTFSENKVQYIAGARPWTHVQKVDIALPCATQNEVSGEEAKALVAQGVKFIAEGSNMGSTPEAIAVFETARSTATGPSEAVWYGPPKAANLGGVAVSGLEMAQNSQRITWTSERVDQELKRIMINCFNECIDYAKKYTKDGKVLPSLVKGANIASFIKVSDAMFDQGDVF
B2: S. cerevisiae NEDD8-activating enzyme E1 regulatory subunit (enzyme, UniProt Q12059 1-462)
chain: MERYDRQLRLWGALGQDSLNRSRVCVVGPATPLLQEVFKNLVLAGISSLTWLKVECAVQSGSLFLAELKKDLEPLASKQLEYEENDLRKTLQQPQYDWTRFSVVILTCIGEQTAMLDLNEIRRQRGTKFPPVLNTFVSGFYGYIYLVLSETHFVLQAHPDSKKYDLRLQNPWPELINYVDTFDLSKMDTATFSGIPYTVLLMKCIAKLERDGNNGRITIDQMKKVLDQICLPLGNDVIYEPNYVEAKRYAYLACSQNDCCKELEDLLRNLEISDYGNDWHDTYNYEILTLLLTLKNIAKENGELSFQPLTGTLPDMESTTENYIRLKKLYEVKAKLDKSRVEESLARSKKIVSQDVLETFCSHYGEVRKILPPKSDLLGIFSTSNALLDALVMVQFWEQPAVTAEDKDEFIGLRVDDNYSVMAFFGGAVVQEAIKLITHHYVPIDNLFLYNGINNSSATYKI
B3: S. cerevisiae NEDD8-activating enzyme E1 catalytic subunit (enzyme, UniProt Q99344 1-299)
chain: MDCKILVLGAGGLGCEILKNLTMLSFVKQVHIVDIDTIELTNLNRQFLFCDKDIGKPKAQVAAQYVNTRFPQLEVVAHVQDLTTLPPSFYKDFQFIISGLDAIEPRRFINETLVKLTLESNYEICIPFIDGGTEGLKGHVKTIIPGITACWECSIDTLPSQQDTVPMCTIANNPRCIEHVVEYVSTIQYPDLNIESTADMEFLLEKCCERAAQFSISTEKLSTSFILGIIKSIIPSVSTTNAMVAATCCTQMVKIYNDLIDLENGNNFTLINCSEGCFMYSFKFERLPDCTVCSNSNSN
B4: S. cerevisiae RING-box protein HRT1 (protein, UniProt Q08273 1-121)
chain: MSNEVDRMDVDEDESQNIAQSSNQSAPVETKKKRFEIKKWTAVAFWSWDIAVDNCAICRNHIMEPCIECQPKAMTDTDNECVAAWGVCNHAFHLHCINKWIKTRDACPLDNQPWQLARCGR
B5: S. cerevisiae F-box protein DAS1 (protein, UniProt P47005 1-663)
chain: MPFQDYFQKKKAAFINRNNKSNADASALRDINDININFAAKSKNYVFPLTKLPDELMQEVFSHLPQPDRLQLCLVNKRLNKIATKLLYRRIYLNDSNVVKSDFMHLAINWTLLNLPSSLKEEESRDIANCKLKKLIETLQNNIHITEVIQWIRINWDLDSTLQRSILSILCNQGKSLQRLENVTDPACNDIISNGHFSRSNVSSFDMAPPNSLPEMVVPENYIPNLTKYLSQRISSRLSHMTLFIDPLKLFNYLYPLDIKLQIIDLKLHWRREFYNNDYFVKKIRPGNPLTKLSEVFDKRTLKILTIISWNDTLLKRETEMLKDFKEFENLEDLSLISIKQDVHILVDLFSSLTNLKRLKMDFLEEYVPEPTNPHIFLSILLACSKLQFIDLRYDGLIPQIINIQENKFQLNQQCNCTNCQIVFSDILKGKIFMFPEDYYIHDLQDIAAKDIFKMMKYLSLLPYSKACDAYPSVRTQPMNLTNFVTKMNRNLLEYRNSKSQLVPKIVNNPHQHSTVTSTSTAHMSEPEMIIIDDDDDDDEINAAIPPSSDDTAATISTDLELPHESLTKRDIIMCYHALIHHFKSIYVTFLKSFPHLRFLMLNDIPTIVMEENNERIFEPVFYHYDYKSNLYGWSKESNKNLENDSNNNNNNSDTIARIATVM
B6: S. cerevisiae SCF E3 ubiquitin ligase complex F-box protein GRR1 (protein, UniProt P24814 1-1151)
chain: MDQDNNNHNDSNRLHPPDIHPNLGPQLWLNSSGDFDDNNNNNNNNNNNNSTRPQMPSRTRETATSERNASEVRDATLNNIFRFDSIQRETLLPTNNGQPLNQNFSLTFQPQQQTNALNGIDINTVNTNLMNGVNVQIDQLNRLLPNLPEEERKQIHEFKLIVGKKIQEFLVVIEKRRKKILNEIELDNLKLKELRIDNSPQAISYLHKLQRMRLRALETENMEIRNLRLKILTIIEEYKKSLYAYCHSKLRGQQVENPTDNFIIWINSIDTTESSDLKEGLQDLSRYSRQFINNVLSNPSNQNICTSVTRRSPVFALNMLPSEILHLILDKLNQKYDIVKFLTVSKLWAEIIVKILYYRPHINKKSQLDLFLRTMKLTSEETVFNYRLMIKRLNFSFVGDYMHDTELNYFVGCKNLERLTLVFCKHITSVPISAVLRGCKFLQSVDITGIRDVSDDVFDTLATYCPRVQGFYVPQARNVTFDSLRNFIVHSPMLKRIKITANNNMNDELVELLANKCPLLVEVDITLSPNVTDSSLLKLLTRLVQLREFRITHNTNITDNLFQELSKVVDDMPSLRLIDLSGCENITDKTIESIVNLAPKLRNVFLGKCSRITDASLFQLSKLGKNLQTVHFGHCFNITDNGVRALFHSCTRIQYVDFACCTNLTNRTLYELADLPKLKRIGLVKCTQMTDEGLLNMVSLRGRNDTLERVHLSYCSNLTIYPIYELLMSCPRLSHLSLTAVPSFLRPDITMYCRPAPSDFSENQRQIFCVFSGKGVHKLRHYLVNLTSPAFGPHVDVNDVLTKYIRSKNLIFNGETLEDALRRIITDLNQDSAAIIAATGLNQINGLNNDFLFQNINFERIDEVFSWYLNTFDGIRMSSEEVNSLLLQVNKTFCEDPFSDVDDDQDYVVAPGVNREINSEMCHIVRKFHELNDHIDDFEVNVASLVRVQFQFTGFLLHEMTQTYMQMIELNRQICLVQKTVQESGNIDYQKGLLIWRLLFIDKFIMVVQKYKLSTVVLRLYLKDNITLLTRQRELLIAHQRSAWNNNNDNDANRNANNIVNIVSDAGANDTSNNETNNGNDDNETENPNFWRQFGNRMQISPDQMRNLQMGLRNQNMVRNNNNNTIDESMPDTAIDSQMDEASGTPDEDML
B7: S. cerevisiae homocysteine methyltransferase (enzyme, UniProt P05694 1-767)
chain: MVQSAVLGFPRIGPNRELKKATEGYWNGKITVDELFKVGKDLRTQNWKLQKEAGVDIIPSNDFSFYDQVLDLSLLFNVIPDRYTKYDLSPIDTLFAMGRGLQRKATETEKAVDVTALEMVKWFDSNYHYVRPTFSKTTQFKLNGQKPVDEFLEAKELGIHTRPVLLGPVSYLFLGKADKDSLDLEPLSLLEQLLPLYTEILSKLASAGATEVQIDEPVLVLDLPANAQAAIKKAYTYFGEQSNLPKITLATYFGTVVPNLDAIKGLPVAALHVDFVRAPEQFDEVVAAIGNKQTLSVGIVDGRNIWKNDFKKSSAIVNKAIEKLGADRVVVATSSSLLHTPVDLNNETKLDAEIKGFFSFATQKLDEVVVITKNVSGQDVAAALEANAKSVESRGKSKFIHDAAVKARVASIDEKMSTRAAPFEQRLPEQQKVFNLPLFPTTTIGSFPQTKDIRINRNKFNKGTISAEEYEKFINSEIEKVIRFQEEIGLDVLVHGEPERNDMVQYFGEQINGYAFTVNGWVQSYGSRYVRPPIIVGDLSRPKAMSVKESVYAQSITSKPVKGMLTGPITCLRWSFPRDDVDQKTQAMQLALALRDEVNDLEAAGIKVIQVDEPALREGLPLREGTERSAYYTWAAEAFRVATSGVANKTQIHSHFCYSDLDPNHIKALDADVVSIEFSKKDDANYIAEFKNYPNHIGLGLFDIHSPRIPSKDEFIAKISTILKSYPAEKFWVNPDCGLKTRGWEETRLSLTHMVEAAKYFREQYKN
B8: S. cerevisiae cell division control protein 53 (protein, UniProt Q12018 1-815)
chain: MSETLPRSDDLEATWNFIEPGINQILGNEKNQASTSKRVYKILSPTMYMEVYTAIYNYCVNKSRSSGHFSTDSRTGQSTILVGSEIYEKLKNYLKNYILNFKQSNSETFLQFYVKRWKRFTIGAIFLNHAFDYMNRYWVQKERSDGKRHIFDVNTLCLMTWKEVMFDPSKDVLINELLDQVTLGREGQIIQRSNISTAIKSLVALGIDPQDLKKLNLNVYIQVFEKPFLKKTQEYYTQYTNDYLEKHSVTEYIFEAHEIIKREEKAMTIYWDDHTKKPLSMALNKVLITDHIEKLENEFVVLLDARDIEKITSLYALIRRDFTLIPRMASVFENYVKKTGENEISSLLAMHKHNIMKNENANPKKLALMTAHSLSPKDYIKKLLEVHDIFSKIFNESFPDDIPLAKALDNACGAFININEFALPAGSPKSATSKTSEMLAKYSDILLKKATKPEVASDMSDEDIITIFKYLTDKDAFETHYRRLFAKRLIHGTSTSAEDEENIIQRLQAANSMEYTGKITKMFQDIRLSKILEDDFAVALKNEPDYSKAKYPDLQPFVLAENMWPFSYQEVEFKLPKELVPSHEKLKESYSQKHNGRILKWLWPLCRGELKADIGKPGRMPFNFTVTLFQMAILLLYNDADVLTLENIQEGTSLTIQHIAAAMVPFIKFKLIQQVPPGLDALVKPETQFKLSRPYKALKTNINFASGVKNDILQSLSGGGHDNHGNKLGNKRLTEDERIEKELNTERQIFLEACIVRIMKAKRNLPHTTLVNECIAQSHQRFNAKVSMVKRAIDSLIQKGYLQRGDDGESYAYLA
B9: S. cerevisiae peroxiredoxin TSA1 (enzyme, UniProt P34760 1-196)
chain: MVAQVQKQAPTFKKTAVVDGVFDEVSLDKYKGKYVVLAFIPLAFTFVCPTEIIAFSEAAKKFEEQGAQVLFASTDSEYSLLAWTNIPRKEGGLGPINIPLLADTNHSLSRDYGVLIEEEGVALRGLFIIDPKGVIRHITINDLPVGRNVDEALRLVEAFQWTDKNGTVLPCNWTPGAATIKPTVEDSKEYFEAANK

What was measured:
[1] = target: T1, N-terminal 2xHA-tagged PfNEDD8 expressed in S. cerevisiae rub1Δ (P. falciparum); experiment: affinity purification with mass spectrometry; lysates of rub1Δ[HA-PfN8] and rub1Δ[HA-rub1] S. cerevisiae (0.5% NP-40, 150 mM NaCl, pH 7.5) immunoprecipitated with mouse anti-HA antibody on protein A/G magnetic beads, overnight at 4 °C; wild type strain as control; eluate by LC-MS/MS
[2] = target: N-terminal 2xHA-tagged S. cerevisiae Rub1 expressed in S. cerevisiae rub1Δ (S. cerevisiae) (UniProt Q03919); experiment: as above

Row | Molecule | binding [1] | binding [2]
1 | S. cerevisiae suppressor of kinetochore protein 1 (from UniProt P52286 1-194) | binds | binds
2 | S. cerevisiae sulfate adenylyl transferase (from UniProt P08536 1-511) (enzyme) | binds | binds
3 | B1 | binds | binds
4 | B2 | binds | binds
5 | B3 | binds | binds
6 | B4 | binds | binds
7 | B5 | binds | binds
8 | B6 | binds | binds
9 | B7 | binds | binds
10 | B8 | binds | binds
11 | B9 | binds | binds

Reference: paper PMC7677368
